Laboratory results taken from PubChem BioAssay AID588590 (National Center for Advancing Translational Sciences (NCATS), 2011).
Among all 390,000 compounds or so, about 4,000 (1%) were called active. The shares of active, inactive and inconclusive entries below differ from those in the screen. Calls come from the whole dose curve; as a rule, active = well fitted inhibition curve with a large enough effect; inconclusive = small, poorly fitted or top-dose-only effect, or another doubt; inactive = no such curve, though single readings can be large or run the other way. Potencies of inconclusive entries are doubtful fits and often do not repeat.
Potency is the fitted concentration of half-maximal effect.

Chains of the proteins cited; added tags and fusions are not shown. Lines headed by an entry give the natural chain unless they say otherwise; changes in a name come on top.
UniProt Q9UNA4: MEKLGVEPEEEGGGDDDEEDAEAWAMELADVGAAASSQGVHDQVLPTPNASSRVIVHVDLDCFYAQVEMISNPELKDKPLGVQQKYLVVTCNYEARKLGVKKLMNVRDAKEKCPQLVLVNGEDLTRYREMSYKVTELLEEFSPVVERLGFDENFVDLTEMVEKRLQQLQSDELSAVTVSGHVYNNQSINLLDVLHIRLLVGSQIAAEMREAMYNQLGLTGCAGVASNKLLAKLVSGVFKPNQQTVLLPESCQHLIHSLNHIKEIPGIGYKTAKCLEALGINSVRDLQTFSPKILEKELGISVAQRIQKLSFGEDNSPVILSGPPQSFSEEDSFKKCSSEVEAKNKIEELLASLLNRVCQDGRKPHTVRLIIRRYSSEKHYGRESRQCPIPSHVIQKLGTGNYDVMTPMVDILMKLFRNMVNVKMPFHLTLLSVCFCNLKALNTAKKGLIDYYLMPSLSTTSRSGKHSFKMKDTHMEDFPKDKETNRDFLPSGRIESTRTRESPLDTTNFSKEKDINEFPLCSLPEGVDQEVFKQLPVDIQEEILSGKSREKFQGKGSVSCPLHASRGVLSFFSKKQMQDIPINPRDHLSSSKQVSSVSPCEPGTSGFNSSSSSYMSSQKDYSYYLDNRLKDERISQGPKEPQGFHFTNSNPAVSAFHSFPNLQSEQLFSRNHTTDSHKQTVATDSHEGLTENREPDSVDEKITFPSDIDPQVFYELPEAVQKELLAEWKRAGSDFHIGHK

These compounds were tested against DNA polymerase iota (Homo sapiens) (UniProt Q9UNA4) (assay: qHTS for Inhibitors of Polymerase Iota). Conditions: Pol iota fluorescent replication assay, 10 min; series mostly up to 115 µM.
In short: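 Fluorescent replication assay read twice, at 0 min and 10 min after adding 50 nM (final) substrate. Enzyme (10 nM) and compounds were first incubated 15 min at room temperature; enzyme-free buffer wells were negative controls.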
CCCC(=O)Nc1cc(Cl)ccc1N1CCN(C(=O)CC)CC1 was tested, and the Potency was inconclusive: 112 µM [inhibitor, single point]. With Nn1c(SCC(=O)Nc2ccc(OC(F)F)cc2)nnc(Cc2ccccc2)c1=O the Potency was inconclusive: 79.4 µM [inhibitor, single point]. With Cc1ccc(C)c(Nc2nnc(-n3nc(C)cc3C)c3ccccc23)c1 the Potency was inconclusive: 89.1 µM [inhibitor, partial curve]. With CC1CCN(S(=O)(=O)c2ccc(NC(=O)CN3CCCC3)cc2)CC1 the Potency was “inactive”. COc1ccccc1N1CCN(C(=O)c2oc3c(c2C)C(=O)CC(C)(C)C3)CC1 was tested, and the Potency was inconclusive: 89.1 µM [inhibitor, single point]. In the case of CS(=O)(=O)C1=NSC2=NC(=O)/C(=C\c3cccn3-c3ccc(Cl)cc3)C(=N)N21, the Potency is reported as inconclusive: 17.8 µM [inhibitor, full curve, poor fit]. In the case of CCCCc1cc(=O)oc2cc(C)cc(OCC(=O)NC(Cc3ccc(Cl)cc3)C(=O)O)c12 (stereo not drawn), the Potency is reported as inconclusive: 89.1 µM [inhibitor, single point]. For COc1ccc(-c2cc(C(F)(F)F)nc(S(=O)(=O)CCCC(=O)Nc3cccc(O)c3)n2)cc1OC, the Potency was inconclusive: 22.4 µM [inhibitor, partial curve, poor fit]. With CC/C(C)=C1/NC(=O)NC1=O the Potency was “inactive”. With COc1ccc(-c2ccc(F)cc2)cc1C1C2C=CCC(C)C2C(=O)N1Cc1ccccc1 (stereo not drawn) the Potency was “inactive”. In the case of Cn1cccc1/C=C1\SC(=S)N(NC(=O)c2ccccc2O)C1=O, the Potency is reported as inconclusive: 28.2 µM [inhibitor, single point]. For O=C1CCCCC1Sc1nnc(Cc2cccs2)n1CCc1ccccc1 (stereo not drawn), the Potency was inconclusive: 39.8 µM [inhibitor, single point]. For COc1ccc(NS(=O)(=O)c2cccc(C(=O)N/N=C/c3ccc(O)cc3)c2)cc1, the Potency was inconclusive: 25.1 µM [inhibitor, single point]. For CCCCS(=O)(=O)c1sc2nc3c(cc2c1N)CCCC3, the Potency was inconclusive: 50.1 µM [inhibitor, partial curve, poor fit]. For COc1cc([N+](=O)[O-])cc(/C=N/NC(=O)c2cccnc2)c1O, the Potency was inconclusive: 20 µM [inhibitor, full curve, poor fit]. In the case of Nc1c(-c2nc(-c3cccs3)no2)nnn1-c1ccc(Cl)cc1, the Potency is reported as “inactive”. With COc1cccc(C(=O)Nc2cccc(C(=O)OCc3cc(=O)n4nc(C5CC5)sc4n3)c2)c1 the Potency was “inactive”. Cc1ccc(S(=O)(=O)N2CCOCC2)cc1NC(=O)COC(=O)CCC(=O)c1ccc(F)cc1 was tested, and the Potency was “inactive”. With c1ccc2oc(SCc3nc4ccccc4s3)nc2c1 the Potency was inconclusive: 12.6 µM [inhibitor, partial curve, poor fit]. With COc1cccc(CSc2nc3ccccc3c3nc(CCn4c(C)nc5ccccc54)nn23)c1 the Potency was “inactive”. For CCCn1c2ccccc2c2cnn(CC(=O)N(C)c3ccc(F)cc3)c(=O)c21, the Potency was “inactive”. COc1ccc(Cl)cc1NC(=O)c1c(NCc2ccc(C)o2)sc2c1CCCCC2 was tested, and the Potency was inconclusive: 17.8 µM [inhibitor, full curve]. COc1ccccc1Nc1nnc(SCC(=O)Nc2cc(C)on2)s1 was tested, and the Potency was inconclusive: 15.8 µM [inhibitor, partial curve, poor fit]. For CC(C)[C@H](NC(=O)N1CCn2c1nc1ccccc12)C(=O)NC1CCCCC1, the Potency was inconclusive: 39.8 µM [inhibitor, full curve, poor fit]. Cc1c(C(=O)N2CCOCC2)cc(C(C)(C)C)n1-c1ccccc1 was tested, and the Potency was “inactive”. O=C1Nc2ccccc2C1=Nc1ccc(S(=O)(=O)Nc2nccs2)cc1 was tested, and the Potency was active: 8.91 µM. For CCCCc1n[nH]c2c1/C(=N/O)CC(c1ccccc1)C2 (stereo not drawn), the Potency was inconclusive: 22.4 µM [inhibitor, partial curve, poor fit]. For COc1ccc(Cl)cc1C(=O)Nc1sc2c(c1C(=O)OC(C)C)CCCC2, the Potency was inconclusive: 89.1 µM [inhibitor, single point]. Nc1nnc(CC(=O)N/N=C/c2cc([N+](=O)[O-])cc(Br)c2O)s1 was tested, and the Potency was inconclusive: 15.8 µM [inhibitor, partial curve, poor fit]. In the case of CCOc1cc(/C=C2\C(=O)ON=C2c2ccccc2)ccc1OC, the Potency is reported as inconclusive: 28.2 µM [inhibitor, single point]. In the case of COc1ccccc1CNC(=O)C1CCCN(c2nc3ccccc3n3cccc23)C1 (stereo not drawn), the Potency is reported as “inactive”. In the case of O=C(c1ccc2ncsc2c1)N1CCN(c2ccccc2Cl)CC1, the Potency is reported as inconclusive: 15.8 µM [inhibitor, partial curve]. With c1ccc2nc3c(nc2c1)[nH]c1ccccc13 the Potency was inconclusive: 28.2 µM [inhibitor, single point]. C=CCN1C(=O)C(=O)N(CC(=O)c2ccc3c(c2)CCCC3)C1=O was tested, and the Potency was “inactive”. CC1CCCN(C(=O)CSc2nnc(-c3c[nH]c4ccccc34)o2)C1 (stereo not drawn) was tested, and the Potency was inconclusive: 100 µM [inhibitor, partial curve, poor fit]. With Cc1cccc(N(CC(=O)NCc2ccccc2)C(=O)CCC(=O)Nc2nccs2)c1 the Potency was “inactive”. With CN(C)C=NC(=O)c1cn(-c2ccc(F)cc2)c(=O)c2ccccc12 the Potency was inconclusive: 89.1 µM [inhibitor, single point]. In the case of O=S(=O)(/C=C/c1ccccc1)N1CCc2ccccc2C1, the Potency is reported as inconclusive: 89.1 µM [inhibitor, single point]. With Cc1nn(-c2ccccc2)c(OC(=O)C(C)C)c1Sc1ccccc1 the Potency was inconclusive: 25.1 µM [inhibitor, single point]. For Brc1cccc(CNCCSc2nnnn2-c2ccccc2)c1, the Potency was inconclusive: 89.1 µM [inhibitor, single point]. O=C(COc1ccc2oc3c(c2c1)CCCC3)Nc1ccc(Br)cc1 was tested, and the Potency was inconclusive: 8.91 µM [inhibitor, full curve, poor fit]. With CCOC(=O)c1c(C)oc2ncnc(N3CCN(c4ccccc4OC)CC3)c12 the Potency was “inactive”. With O=C(Nc1ccc2c(c1)OCO2)c1cc2nc(C3CC3)cc(C(F)(F)F)n2n1 the Potency was inconclusive: 28.2 µM [inhibitor, single point].
